This assay deals with T1, SepF-HA (HA-tagged SepF, Hvo_0392, of Haloferax volcanii strain HTQ236) (Haloferax volcanii) (UniProt D4H018).
T1 sequence: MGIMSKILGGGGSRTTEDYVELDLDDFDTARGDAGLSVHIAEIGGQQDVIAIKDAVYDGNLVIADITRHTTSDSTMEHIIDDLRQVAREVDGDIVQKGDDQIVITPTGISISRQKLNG
The experiment in a line: affinity purification with mass spectrometry.

Experimental findings from article doi:10.1101/2020.10.06.327809 (bioRxiv, 2020) are described below.

No constants are given. Whether binding was seen depends on the method and setting. Binding seen in cells or lysates may run through a third protein. Here binding means that the protein was enriched with, or labelled near, the bait; the list need not be complete. No binding means not detected with the bait. Where a sequence is shown, tags or fusion partners need not be part of it.

For PssD of Haloferax volcanii, the binding result is recorded as “no binding”.
The value for PssA of Haloferax volcanii was “no binding”.

B1: archaeosortase A (ArtA) of Haloferax volcanii (protein, UniProt D4GUZ4 1-303)
chain: MPGLLSDILAWVVIGTFVAGAVANGRDRELGRRVMTAAWVLFALFWLQLIPHFTLVHKSYIEGLLTIAAVPASLYAGWLLYNGRDTLFVLSRAVAAMGVVYLPFETIPAFTLLGATVPAPRGVLMETVAAQTRFLIESLGYTPQMIVGDQGYLNTFLWMQGSHRLEISVVLACTGLGSIAIFAGLIAAVDAPMGRKLRGLAIAVPIIYALNLLRTTFIAISVGKQYFHLFVDEVLFLFGSSDPYMVSFFISDRIISQALAVVALVGVTYLVVHEVPELLTVIEDVLYMVTGDEYDLRNELGLD
For the molecule B1, the binding entry is recorded as “no binding”.
